From patent publication US11154550B2, “Treatment for neurodegeneration” (The University of Birmingham, priority 2012, dated 2021)
“Also recorded” adds a separate entry of the source. Where two headings read alike, the source gives them in different places. At least one compound was matched to its structure with a doubt left.

Experiments:
[1] = system: C7, KD2 and KD3 cell lines (SK-N-AS derived); assay: Cell cycle analysis (propidium iodide DNA content cytometry) in drug-treated C7, KD2 and KD3 cells; assay type: cell-based, human; conditions: all three cell lines (C7, KD2, KD3), 24 hours, up to 100 μM
Protocol: The C7 cell suspension were poured into sterile reagent reservoir labelled C7 and using multichannel pipette, 50 μl of cell suspension were dispense into each well. Then 50 μl of 2× culture media was added into each well. Plating was repeated for KD2 and KD3 cell lines. One plate of ‘zero day control’ was also prepared per experiment. On ‘zero day control’ plate, C7 cell line were plated into columns 1, 2, 7 and 8; KD2 cell line were plated into columns 3, 4, 9 and 10; KD3 cell line were plated into columns 5, 6, 11 and 12. Cells were plated at the same density for both ‘zero day control’ and experiment plates. The ‘zero day control’ plate remains untreated and is to be harvested just before the drugs were added into the treatment plates.
For each drug, 2× working solutions are prepared in culture medium and added to the cultures. The highest drug concentration is 100 μM and final solvent (H2O/DMSO) concentration in the cultures is 1%. […]
To determine cut-offs for cells in different phases of the cell cycle, gate setting was performed based on the G1 and G2 peaks on the DNA content histogram. To determine the G1 and G2 peaks, the 3° total intensity in 20% histograms was analysed for each plate. Gates calculated were manually entered into the Acumen software.
The data exported and quantified included separately all cells and single cells. […]

[2] = system: C7, KD2 and KD3 cell lines (SK-N-AS derived); assay: Apoptotic fraction in p21 positive versus p21 negative cells of drug-treated C7, KD2 and KD3 cultures; assay type: cell-based, human
Protocol: The data exported and quantified included separately all cells and single cells. Single cells were further subcategorised into euploid, apoptotic and polyploid cells. Euploid cells were additionally classified into cells in G1 S and G2M phases of the cell cycle.
The total fluorescence intensity from the 1° channel was used to compare total protein levels in the different cell populations defined above. Mean fluorescence intensity per cell (for the whole of the population) and mean fluorescence intensity per cell (for positive cells only) were analysed separately. Additionally the proportion of positive cells in each population was calculated.

[3] = system: p21cip1; assay: p21cip1 immunostaining and cytometry in drug-treated C7, KD2 and KD3 cells; assay type: cell-based, human
Protocol: BSA was removed from the plates after 30 minutes incubation. To C7, KD2 and KD3 plates, 50 μl of primary antibody (p21; Abcam ab7903; 1/1000 in PBST) solution was added to each well. On ‘zero day control’ plate, 50 μl of the primary antibody was added to columns 1-6 while columns 7-12 received only 50 μl PBST on each well. These (columns 7-12) serve as a negative controls and will received secondary antibody only. Plates were then wrapped in cling film and were incubated at +4° C. overnight. The following day, p21 primary antibody solution was removed from the plates and cells were washed by adding 200 μl of PBST. This was repeated once (total of 2 washes) and all plates were then subjected to secondary antibody treatment. Secondary antibody solution was made using am IgG-FITC (Abcam ab6785; 1/200 in PBST) and 50 μl was added to each well. Plates were then wrapped in aluminium foil to protect from light and were incubated at +4° C. for 2 hours. The immunostaining was used to measure the content of p21^cip1 in the cells. Measurement was carried out using a laser triggering the 1° channel (bandpass filter 500-530 nm). The total fluorescence intensity from the 1° channel was used to compare total protein levels in the different cell populations defined above. Mean fluorescence intensity per cell (for the whole of the population) and mean fluorescence intensity per cell (for positive cells only) were analysed separately. Additionally the proportion of positive cells in each population was calculated.

[4] = system: p21; assay: p21 fluorescent immunocytochemistry followed by high content cytometry in drug-treated SHSY-5Y cells; assay type: cell-based, Human; conditions: neuroblastoma cells
Protocol: (§1) Human SHSY-5Y neuroblastoma cells were grown in DMEM:F12 supplemented with 10% FCS, penicillin (100 units/mil), streptomycin (100 μg/ml) and L-glutamine. The cells were plated for 24 hours into 96 well plates (5000 cells per well) before treatment with drugs. Each drug (doses applied in separate figures) and the control (DMSO) were applied to 8 technical replicate wells. After 24 hours treatment the cells were harvested by fixation in Glyofix and were post-fixed with ice cold 85% ethanol.
For P21^cip staining, the alcohol was aspirated and replaced with 100 μl/well blocking solution (5% BSA in PBST [1:1000 Triton X]) and incubated for 30 minutes at room temperature. After aspirating the blocking solution, 50 μl/well primary antibody solution (monoclonal P21 Abcam, 1:1000 in PBST) was added and incubated over night at 4° C. and PBST was applied as negative control. The next day, the cells were washed by twice aspirating 200 μl/well PBST. Afterwards, 50 μl/well secondary antibody solution (Anti-mouse IgG-FITC, Abcam, 1:200 in PBST) was added, protecting the solutions and plates from light, and incubated overnight at +4° C. The next day, the cells were washed twice with 200 μl/well PBST and stained with propidium iodide solution. […]. The composition of the propidium iodide staining solution was 0.1% Triton-X-100, […] propidium iodide, […] RNase A in PBS. The cells were incubated with the staining solution for 25 minutes at 37° C., and then DNA content based on total fluorescence was measured with a High Content Cytometer (Acumen). This allows rapid analysis of whole 96 well plates with resolution equivalent to a 20× microscope objective. The measurement of p21 content of cells and nuclei was based on the direct measurement of fluorescent intensity.

[5] = system: Human SHSY-5Y neuroblastoma cells; assay: High content cytometry apoptosis assay in drug-treated SHSY-5Y cells; assay type: cell-based; conditions: up to 33 microM, 24 hours
Protocol: as §1
For P21^cip staining, the alcohol was aspirated and replaced with 100 μl/well blocking solution (5% BSA in PBST [1:1000 Triton X]) and incubated for 30 minutes at room temperature. After aspirating the blocking solution, 50 μl/well primary antibody solution (monoclonal P21 Abcam, 1:1000 in PBST) was added and incubated over night at 4° C. and PBST was applied as negative control. The next day, the cells were washed by twice aspirating 200 μl/well PBST. Afterwards, 50 μl/well secondary antibody solution (Anti-mouse IgG-FITC, Abcam, 1:200 in PBST) was added, protecting the solutions and plates from light, and incubated overnight at +4° C. […] The cells were incubated with the staining solution for 25 minutes at 37° C., and then DNA content based on total fluorescence was measured with a High Content Cytometer (Acumen). […]

[6] = all cell lines (C7, KD2, KD3), 24 hours

Structure (SMILES) | cell cycle effects [1] | apoptosis in p21 positive cells relative to p21 negative cells [2] | apoptosis in p21 positive cells relative to p21 negative cells ([2]; listed as pioglitazone) | p21 expression ([3]; G1 and G2 subpopulations, all three cell lines) | p21 expression [3, 6] | expression and/or the functional activity of p21 [4] | p21 expression ([4]; up to 33 microM, 24 hours) | translocation of p21 in the nucleus ([4]; up to 33 microM, 24 hours) | translocation of p21 in the nucleus ([4]; up to 33 microM, 24 hours, listed as rapamycin) | apoptotic cell death [5]
CCc1ccc(CCOc2ccc(CC3SC(=O)NC3=O)cc2)nc1 (stereo not shown) [Pioglitazone] | did not have any significant cell cycle effects | significantly reduced | significantly reduced apoptosis | induce; also recorded: increased | upregulation | – | – | – | – | –
CO[C@H]1/C=C/O[C@@]2(C)Oc3c(C)c(O)c4c(O)c(c(/C=N/N5CCN(C)CC5)c(O)c4c3C2=O)NC(=O)/C(C)=C\C=C\[C@H](C)[C@H](O)[C@@H](C)[C@@H](O)[C@@H](C)[C@H](OC(C)=O)[C@@H]1C [Rifampicin] | did not exert cell cycle effects | significant reduction of apoptosis; also recorded: significant reduction in apoptosis | – | – | up-regulates; also recorded: upregulation | – | – | – | – | –
CO[C@H]1C[C@@H]2CC[C@@H](C)[C@@](O)(O2)C(=O)C(=O)N2CCCC[C@H]2C(=O)O[C@H]([C@H](C)C[C@@H]2CC[C@@H](O)[C@H](OC)C2)CC(=O)[C@H](C)/C=C(\C)[C@@H](O)[C@@H](OC)C(=O)[C@H](C)C[C@H](C)/C=C/C=C/C=C/1C [Rapamycin] | – | – | – | – | – | increased | do not affect | increase the translocation; also recorded: increased translocation | increased translocation | reduce apoptosis; also recorded: reduction of apoptotic cell death
